Each molecule was assayed on KG1a cells (assay: MTT cell viability assay, KG1a cells). Conditions: chemoresistant KG1a versus chemosensible KG1.
Assay type: cell-based
Description: Briefly, effect of drugs alone and in combinations were determined for a 3-5 log scale of concentrations of drugs and with a constant ratio between the two drugs used for co-treatment. Cells were seeded in 96-well plates (50 000 cell/well). Cells were treated just after seeding, for 48 hours. Cell viability was determined with MTT assay. Cells were centrifuged 5 minutes at 1200 rpm, medium removed, 100 μl of MTT solution (1 mg/ml in PBS) added, incubated for 2 hours at 37° C., centrifuged, MTT solution removed and DMSO (100 μl) added to dissolve purple formazan formed by living cells. Absorbance of the solution was determined at 540 nm.
HL60, KG1, KG1a and MV4-11 cells were seeded in 96-well plates (50 000 cells/well). Cells were treated just after seeding with increasing doses of daunorubicin, for 48 hours. Cell viability was determined with MTT assay as follows: cells were centrifuged 5 minutes at 1200 rpm, medium removed, 100 μl of MTT solution (1 mg/ml in PBS) added, incubated for 2 hours at 37° C., centrifuged, MTT solution removed and DMSO (100 μl) added to dissolve purple formazan formed by living cells. Absorbance of the solution was determined at 540 nm.
HL60, KG1, KG1a and MV4-11 cells were seeded in 96-well plates (50 000 cells/well). Cells were treated just after seeding with increasing doses of cytarabine, for 48 hours.
HL60, KG1, KG1a and MV4-11 cells were seeded in 96-well plates (50 000 cells/well).
HL60, KG1, KG1a and MV4-11 cells were seeded in 96-well plates (50 000 cells/well). Cells were treated just after seeding with increasing doses of cisplatin, for 48 hours.
HL60, KG1, KG1a and MV4-11 cells were seeded in 96-well plates (50 000 cells/well). Cells were treated just after seeding with increasing doses of Dendrogenin A, for 48 hours.
(§1) KG1a cells were seeded in 96-well plates (50 000 cells/well).
as §1
KG1a cells were seeded in 96-well plates (50 000 cells/well). […]
In the case of COc1cccc2c1C(=O)c1c(O)c3c(c(O)c1C2=O)C[C@@](O)(C(C)=O)C[C@@H]3O[C@H]1C[C@H](N)[C@H](O)[C@H](C)O1 [Daunorubicin], the “KG1a/KG1 IC50 ratio” value is reported as 17.
N.N.[Cl][Pt][Cl] [Cisplatin] was tested, and the “KG1a/KG1 IC50 ratio” value was 2.9.
For CC(C)CCC[C@@H](C)[C@H]1CC[C@H]2[C@@H]3C[C@@H](NCCc4cnc[nH]4)[C@@]4(O)C[C@@H](O)CC[C@]4(C)[C@H]3CC[C@]12C [Dendrogenin A, 5α-hydroxy-6β-[2-(1H-imidazol-4-yl)ethylamino]cholestan-3β-ol], the “KG1a/KG1 IC50 ratio” value was 1.5.
With Nc1ccn([C@@H]2O[C@H](CO)[C@@H](O)[C@@H]2O)c(=O)n1 [Cytarabine] the “KG1a/KG1 IC50 ratio” value was 4.5.

From patent publication US10188666B2, “Dendrogenin A and antineoplastic agents for the treatment of chemosensitive or chemoresistant tumors” (priority 2013, dated 2019)
